For assay [1], the target named is T1, Retinoschisin (RS1) (human (endogenous in human retina)) (UniProt O15537).
T1 sequence: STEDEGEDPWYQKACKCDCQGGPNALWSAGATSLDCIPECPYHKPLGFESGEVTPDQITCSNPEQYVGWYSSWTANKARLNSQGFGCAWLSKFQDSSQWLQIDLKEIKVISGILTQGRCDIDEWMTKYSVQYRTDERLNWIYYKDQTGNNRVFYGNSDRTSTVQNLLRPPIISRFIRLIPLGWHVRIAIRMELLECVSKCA
Kind of assay: affinity purification with mass spectrometry; RS1 or NDP immunoprecipitated complex from human retinal tissue, MALDI-TOF peptide mass fingerprinting, MASCOT search against Swissprot.

Sequences of proteins named here, by UniProt entry; tags and fusion partners are left off. Residues count along the entry.
UniProt Q00604, residues 25-133: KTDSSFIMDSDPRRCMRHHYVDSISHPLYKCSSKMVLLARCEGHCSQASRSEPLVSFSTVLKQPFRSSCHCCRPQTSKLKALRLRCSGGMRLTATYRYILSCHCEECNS

The target of assay [2] is Norrin (NDP) (human (endogenous in human retina)) (UniProt Q00604). The description is as above.

These are yes or no findings as the source states them, for the method shown. In cells and extracts the contact can be indirect. A yes stands for co-enrichment or nearness to the bait. Other partners may have been found. No binding means not detected with the bait. Sequences can lack the tags named with a protein.

In the case of “Norrin (NDP) (from UniProt Q00604 25-133)”, the binding entry in assay [1] is given as “no binding”.

B1: Retinoschisin (RS1) (protein, UniProt O15537 24-224)
chain: T1 sequence
Consider B1, for which the binding result in assay [2] was “no binding”.

These data come from article PMC8157631.
